In article PMC4010427, “Structural and Functional Similarity of Amphibian Constitutive Androstane Receptor with Mammalian Pregnane X Receptor” (PLoS ONE, 2014):
No constants are given. Whether binding was seen depends on the method and setting. In cells and extracts the contact can be indirect. Some binding calls cover weakened binding; strength is not graded here.

By UniProt entry, the sequences of proteins in these tests, tags left out. Residues count along the entry.
UniProt Q15788, residues 583-783: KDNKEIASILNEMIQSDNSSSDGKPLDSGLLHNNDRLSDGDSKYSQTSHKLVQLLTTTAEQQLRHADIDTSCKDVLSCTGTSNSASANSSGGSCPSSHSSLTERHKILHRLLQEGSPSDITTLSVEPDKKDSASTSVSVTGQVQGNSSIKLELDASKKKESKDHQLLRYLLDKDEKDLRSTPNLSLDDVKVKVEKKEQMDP

Experiments:
[1] = target: GST-tagged SRC-1 RID protein (recombinant human SRC-1, amino acids 583–783) (UniProt Q15788); experiment: pull-down; CARLA: 3–5 µg GST-tagged SRC-1 RID on glutathione-sepharose 4B beads, 2 µl 35S-labelled in vitro translated CAR protein, NETN (100 mM NaCl, 1 mM EDTA, 1 mM DTT, 20 mM Tris-Cl pH 8.0, 0.5% Nonidet P40) with 0.5% skimmed milk powder, over night at 4°C; 1% solvent DMSO only (no ligand); only the target purified
[2] = target: GST-tagged SRC-1 RID protein (recombinant human SRC-1, amino acids 583–783) (UniProt Q15788); experiment: pull-down; CARLA as above, in the presence of the indicated concentrations of pregnanedione (dose response); only the target purified

binding [1]: binds | binding [2]: binds
B1: full-length human CAR1 protein, 35S-labelled (protein, UniProt Q14994-2 1-348)
chain: MASREDELRNCVVCGDQATGYHFNALTCEGCKGFFRRTVSKSIGPTCPFAGSCEVSKTQRRHCPACRLQKCLDAGMRKDMILSAEALALRRAKQAQRRAQQTPVQLSKEQEELIRTLLGAHTRHMGTMFEQFVQFRPPAHLFIHHQPLPTLAPVLPLVTHFADINTFMVLQVIKFTKDLPVFRSLPIEDQISLLKGAAVEICHIVLNTTFCLQTQNFLCGPLRYTIEDGARVGFQVEFLELLFHFHGTLRKLQLQEPEYVLLAAMALFSPDRPGVTQRDEIDQLQEEMALTLQSYIKGQQRRPRDRFLYAKLLGLLAELRSINEAYGYQIQHIQGLSAMMPLLQEICS
modifications: 35S-methionine labelled
